The source of these data is article doi:10.1101/2024.12.14.628500.

For the assay, the target named is T1, Atp6-HA-6xHis (ATP synthase subunit Atp6, C-terminally tagged by HA-6xHis) (S. cerevisiae) (UniProt P00854).
T1 sequence: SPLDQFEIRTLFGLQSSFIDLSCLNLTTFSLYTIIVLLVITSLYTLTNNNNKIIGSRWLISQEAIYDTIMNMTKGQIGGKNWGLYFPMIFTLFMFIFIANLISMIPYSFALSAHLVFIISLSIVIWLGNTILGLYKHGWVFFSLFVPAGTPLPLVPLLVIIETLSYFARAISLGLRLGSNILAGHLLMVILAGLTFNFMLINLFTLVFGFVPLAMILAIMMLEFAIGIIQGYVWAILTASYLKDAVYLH
Nature of the assay: pull-down.

These are yes or no findings as the source states them, for the method shown. In cells and extracts the contact can be indirect. Some entries that bind do so weakly or less than the wild type. Where a sequence is shown, tags or fusion partners need not be part of it.

B1: Atp3 (ATP synthase subunit γ) (protein, UniProt P38077 34-311)
chain: ATLKEVEMRLKSIKNIEKITKTMKIVASTRLSKAEKAKISAKKMDEAEQLFYKNAETKNLDVEATETGAPKELIVAITSDKGLCGSIHSQLAKAVRRHLNDQPNADIVTIGDKIKMQLLRTHPNNIKLSINGIGKDAPTFQESALIADKLLSVMKAGTYPKISIFYNDPVSSLSFEPSEKPIFNAKTIEQSPSFGKFEIDTDANVPRDLFEYTLANQMLTAMAQGYAAEISARRNAMDNASKNAGDMINRYSILYNRTRQAVITNELVDIITGASSLG
Consider B1, for which the binding entry is “binds”.
